These are yes or no findings as the source states them, for the method shown. In cells and extracts the contact can be indirect. A yes stands for co-enrichment or nearness to the bait. Other partners may have been found. For part of these data: Where a sequence is shown, tags or fusion partners need not be part of it.
Legend:
[1] = target: SARS-CoV-2 NSP15, SFB- or BioID2-tagged (SARS-CoV-2) (UniProt P0DTD1); assay: affinity purification with mass spectrometry + proximity labelling
[2] = target: SARS-CoV-2 NSP6, SFB- or BioID2-tagged (SARS-CoV-2) (UniProt P0DTD1); assay: as above
[3] = target: SARS-CoV-2 NSP3, SFB- or BioID2-tagged (SARS-CoV-2) (UniProt P0DTD1); assay: as above
[4] = target: HCoV-OC43 NSP1, BioID2-tagged (HCoV-OC43) (UniProt P0C6X6); assay: proximity labelling
[5] = target: T1, HCoV-229E NSP1, BioID2-tagged (HCoV-229E) (UniProt P0C6X1); assay: proximity labelling
T1 sequence: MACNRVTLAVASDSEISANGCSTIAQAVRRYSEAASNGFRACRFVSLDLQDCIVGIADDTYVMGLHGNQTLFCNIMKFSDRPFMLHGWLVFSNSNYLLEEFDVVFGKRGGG

Sequences of proteins named here, by UniProt entry; tags and fusion partners are left off. Residues count along the entry.
UniProt Q15303, 26-1308: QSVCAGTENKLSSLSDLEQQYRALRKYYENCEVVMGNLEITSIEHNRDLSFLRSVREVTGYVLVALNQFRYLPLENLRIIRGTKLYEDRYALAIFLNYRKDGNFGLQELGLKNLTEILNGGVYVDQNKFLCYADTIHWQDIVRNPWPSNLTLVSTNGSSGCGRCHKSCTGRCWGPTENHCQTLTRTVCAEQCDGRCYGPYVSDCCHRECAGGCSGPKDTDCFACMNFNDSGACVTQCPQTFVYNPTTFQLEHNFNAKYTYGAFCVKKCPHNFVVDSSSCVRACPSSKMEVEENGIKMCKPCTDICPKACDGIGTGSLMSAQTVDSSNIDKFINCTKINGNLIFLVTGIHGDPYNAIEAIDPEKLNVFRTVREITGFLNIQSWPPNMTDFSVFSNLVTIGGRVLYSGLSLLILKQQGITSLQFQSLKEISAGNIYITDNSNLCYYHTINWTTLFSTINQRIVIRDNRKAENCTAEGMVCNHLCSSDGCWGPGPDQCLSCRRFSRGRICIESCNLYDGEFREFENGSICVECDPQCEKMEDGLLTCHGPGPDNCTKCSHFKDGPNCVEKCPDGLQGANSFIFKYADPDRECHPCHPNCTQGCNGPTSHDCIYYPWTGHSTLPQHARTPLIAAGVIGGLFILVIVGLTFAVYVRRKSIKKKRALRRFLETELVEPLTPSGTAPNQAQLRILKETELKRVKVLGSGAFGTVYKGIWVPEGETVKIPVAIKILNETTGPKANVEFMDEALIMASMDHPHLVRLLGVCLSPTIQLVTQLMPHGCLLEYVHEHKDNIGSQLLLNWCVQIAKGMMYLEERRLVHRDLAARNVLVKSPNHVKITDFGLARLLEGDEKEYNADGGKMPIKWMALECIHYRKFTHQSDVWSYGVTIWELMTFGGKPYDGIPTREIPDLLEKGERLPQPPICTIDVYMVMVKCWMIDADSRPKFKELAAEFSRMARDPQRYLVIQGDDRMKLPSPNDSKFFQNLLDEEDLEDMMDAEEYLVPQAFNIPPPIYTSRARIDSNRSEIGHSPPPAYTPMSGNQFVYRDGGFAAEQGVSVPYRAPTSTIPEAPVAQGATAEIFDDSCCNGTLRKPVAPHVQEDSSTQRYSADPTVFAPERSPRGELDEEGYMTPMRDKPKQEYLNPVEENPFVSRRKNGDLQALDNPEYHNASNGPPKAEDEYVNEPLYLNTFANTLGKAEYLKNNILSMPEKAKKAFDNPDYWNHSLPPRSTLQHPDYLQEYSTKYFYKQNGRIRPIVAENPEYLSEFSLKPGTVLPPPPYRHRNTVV

[6] = target: SARS-CoV-1 NSP1, SFB- or BioID2-tagged (SARS-CoV-1) (UniProt P0C6X7); assay: affinity purification with mass spectrometry + proximity labelling
[7] = target: MERS-CoV NSP1, SFB- or BioID2-tagged (MERS-CoV) (UniProt K9N7C7); assay: as above
[8] = target: SARS-CoV-2 NSP1, SFB- or BioID2-tagged (SARS-CoV-2) (UniProt P0DTD1); assay: as above
[9] = target: T2, HCoV-229E NSP1, SFB- or BioID2-tagged (HCoV-229E) (UniProt P0C6X1); assay: as above
T2 sequence: T1 sequence

[10] = target: SARS-CoV-2 NSP7, SFB- or BioID2-tagged (SARS-CoV-2) (UniProt P0DTD1); assay: as above
[11] = target: SARS-CoV-2 ORF7b, SFB- or BioID2-tagged (SARS-CoV-2) (UniProt P0DTD8); assay: as above
[12] = target: SARS-CoV-1 NSP1, SFB-tagged (SARS-CoV-1) (UniProt P0C6X7); assay: affinity purification with mass spectrometry
[13] = target: SARS-CoV-2 NSP1, SFB-tagged (SARS-CoV-2) (UniProt P0DTD1); assay: affinity purification with mass spectrometry
[14] = target: MERS-CoV NSP1, SFB-tagged (MERS-CoV) (UniProt K9N7C7); assay: affinity purification with mass spectrometry
[15] = target: T3, HCoV-229E NSP1, SFB-tagged (HCoV-229E) (UniProt P0C6X1); assay: affinity purification with mass spectrometry
T3 sequence: T1 sequence

[16] = target: SARS-CoV-2 NSP5, SFB- or BioID2-tagged (SARS-CoV-2) (UniProt P0DTD1); assay: affinity purification with mass spectrometry + proximity labelling
[17] = target: SARS-CoV-2 ORF6, SFB- or BioID2-tagged (SARS-CoV-2) (UniProt P0DTC6); assay: as above
[18] = target: SARS-CoV-2 ORF3a, SFB- or BioID2-tagged (SARS-CoV-2) (UniProt P0DTC3); assay: as above

## ANXA5 (from UniProt P08758 1-320)
[1]
  binding: binds

## ATP5F1B (from UniProt P06576 48-529)
[2]
  binding: binds

## ATP5PB (from UniProt P24539 43-256)
[2]
  binding: binds

## ATP5PF (from UniProt P18859 33-108)
[2]
  binding: binds

## ATP5PO (from UniProt P48047 24-213)
[2]
  binding: binds

## ATP6AP1 (from UniProt Q15904 42-470)
[2]
  binding: binds

## ATP13A3 (from UniProt Q9H7F0 1-1226)
[2]
  binding: binds

## BAZ1A (from UniProt Q9NRL2 1-1556)
[3]
  binding: binds

## BAZ1B (from UniProt Q9UIG0 1-1483)
[3]
  binding: binds
[4]
  binding: binds
[5]
  binding: binds

## BCLAF1 (from UniProt Q9NYF8 1-920)
[6]
  binding: binds
[7]
  binding: binds
[8]
  binding: binds
[9]
  binding: binds

## CAV1 (from UniProt Q03135 1-178)
[2]
  binding: binds

## CNOT1 (from UniProt A5YKK6 1-2376)
[10]
  binding: binds

## CNOT2 (from UniProt Q9NZN8 1-540)
[10]
  binding: binds

## CNOT3 (from UniProt O75175 1-753)
[10]
  binding: binds

## DHFR (from UniProt P00374 1-187)
[2]
  binding: binds

## DIS3L2 (from UniProt Q8IYB7 1-885)
[6]
  binding: binds
[7]
  binding: binds
[8]
  binding: binds
[9]
  binding: binds

## DVL2 (from UniProt O14641 1-736)
[10]
  binding: binds

## EGFR (from UniProt P00533 25-1210) (receptor)
[11]
  binding: binds

## EIF4G2 (from UniProt P78344 1-907)
[12]
  binding: binds
[13]
  binding: binds
[14]
  binding: binds
[15]
  binding: binds

## ERBB2 (from UniProt P04626 23-1255) (receptor)
[11]
  binding: binds

## ERBB4 (from UniProt Q15303) (receptor)
[11]
  binding: binds

## ERCC3 (from UniProt P19447 1-782)
[15]
  binding: binds

## GTF2H1 (from UniProt P32780 1-548)
[15]
  binding: binds

## GTF2H2 (from UniProt Q13888 1-395)
[15]
  binding: binds

## GTF2H4 (from UniProt Q92759 1-462)
[15]
  binding: binds

## MACROH2A1 (from UniProt O75367 1-369)
[3]
  binding: binds
[4]
  binding: binds
[5]
  binding: binds

## MACROH2A2 (from UniProt Q9P0M6 1-372)
[3]
  binding: binds
[4]
  binding: binds
[5]
  binding: binds

## MDC1 (from UniProt Q14676 1-2089)
[16]
  binding: binds

## PSIP1 (from UniProt O75475 1-530)
[4]
  binding: binds
[5]
  binding: binds

## PUM3 (from UniProt Q15397 1-648)
[4]
  binding: binds
[5]
  binding: binds

## RIPK1 (from UniProt Q13546 1-671)
[6]
  binding: binds
[7]
  binding: binds
[8]
  binding: binds
[9]
  binding: binds

## SEC23A (from UniProt Q15436 1-765)
[17]
  binding: binds

## SEC24A (from UniProt O95486 1-1093)
[17]
  binding: binds

## SEC31A (from UniProt O94979 1-1220)
[17]
  binding: binds

## SIGMAR1 (from UniProt Q99720 1-223)
[2]
  binding: binds

## SMARCA1 (from UniProt P28370 1-1042)
[4]
  binding: binds
[5]
  binding: binds

## SMARCA4 (from UniProt P51532 1-1647)
[3]
  binding: binds

## SMARCA5 (from UniProt O60264 1-1052)
[4]
  binding: binds
[5]
  binding: binds

## SMG6 (from UniProt Q86US8 1-1419)
[6]
  binding: binds
[7]
  binding: binds
[8]
  binding: binds
[9]
  binding: binds

## SSRP1 (from UniProt Q08945 1-709)
[6]
  binding: binds
[7]
  binding: binds
[8]
  binding: binds
[9]
  binding: binds
[3]
  binding: binds

## SUPT16H (from UniProt Q9Y5B9 1-1047)
[3]
  binding: binds
[4]
  binding: binds
[5]
  binding: binds

## TDRD3 (from UniProt Q9H7E2 1-651)
[6]
  binding: binds
[7]
  binding: binds
[8]
  binding: binds
[9]
  binding: binds

## TOP2B (from UniProt Q02880 1-1626)
[4]
  binding: binds
[5]
  binding: binds

## TRAPPC9 (from UniProt Q96Q05 1-1148)
[18]
  binding: binds

## TRAPPC10 (from UniProt P48553 1-1259)
[18]
  binding: binds

## USP11 (from UniProt P51784 1-963)
[16]
  binding: binds

## VAMP2 (from UniProt P63027 1-116)
[11]
  binding: binds

## VAMP3 (from UniProt Q15836 1-100)
[11]
  binding: binds

## VDAC1 (from UniProt P21796 1-283)
[2]
  binding: binds
